Assay [1] deals with Ring1B (mouse (endogenous in ESCs)) (UniProt Q9CQJ4). Put plainly: affinity purification with mass spectrometry; IP with anti-Ring1B (MBL, D139-3) from 400 ug ESC nuclear extract (WT cells, or Ring1B-/- cells rescued with Ring1BI53A), Protein G Sepharose 2 h at 4 C, washes BC300 (300 mM NaCl, 0.05% NP40) and BC100; 4-20% SDS-PAGE, bands cut, nLC-ESI-MS/MS; peptides also in the control IgG lane discarded; IgG heavy and light chain bands omitted.

Protein sequences, listed by entry. Tags and fused reporters are not part of them. Lines headed by an entry give the natural chain unless they say otherwise; changes in a name come on top.
UniProt Q9CQJ4: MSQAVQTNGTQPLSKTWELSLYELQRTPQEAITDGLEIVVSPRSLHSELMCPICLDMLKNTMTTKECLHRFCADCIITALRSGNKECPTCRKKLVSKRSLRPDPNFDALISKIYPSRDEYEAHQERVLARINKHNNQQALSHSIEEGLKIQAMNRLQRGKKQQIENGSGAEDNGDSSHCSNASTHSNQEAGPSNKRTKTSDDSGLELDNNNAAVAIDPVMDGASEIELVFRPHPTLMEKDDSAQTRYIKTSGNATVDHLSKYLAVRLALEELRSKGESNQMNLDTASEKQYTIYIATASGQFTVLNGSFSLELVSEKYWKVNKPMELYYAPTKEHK

For a further assay, the target named is Ring1BI53A (UniProt Q9CQJ4). Described as above.

These are yes or no findings as the source states them, for the method shown. In cells and extracts the contact can be indirect. These calls come from enrichment with a bait or labelling near it, and not all partners need be listed.

B1: lysine demethylase Fbxl10 (enzyme, UniProt Q6P1G2 1-1309)
chain: MEAEKDSGRRLRAIDRQRYDENEDLSDVEEIVSVRGFSLEEKLRSQLYQGDFVHAMEGKDFNYEYVQREALRVPLVFRDKDGLGIKMPDPDFTVRDVKLLVGSRRLVDVMDVNTQKGTEMSMSQFVRYYETPEAQRDKLYNVISLEFSHTKLEHLVKRPTVVDLVDWVDNMWPQHLKEKQTEATNALAEMKYPKVKKYCLMSVKGCFTDFHIDFGGTSVWYHVFRGGKIFWLIPPTLHNLALYEEWVLSGKQSDIFLGDRVERCQRIELKQGYTFFIPSGWIHAVYTPVDSLVFGGNILHSFNVPMQLRIYEIEDRTRVQPKFRYPFYYEMCWYVLERYVYCVTQRSYLTQEYQRELMLIDAPRKTSVDGFSSDSWLDMEEESCEQQPQEEEEEEEDKEEEGDGADKTPKPPTDDPTSPTSTPPEDQDSTGKKPKAPAIRFLKRTLSNESEESVKSTSMPTDDPKTPTGSPATEVSTKWTHLTEFELKGLKALVEKLESLPENKKCVPEGIEDPQALLEGVKNVLKEHVDDDPTLAITGVPVVSWPKKTAKNRVVGRPKGKLGPASAVKLAANRTTAGARRRRTRCRKCEACLRTECGECHFCKDMKKFGGPGRMKQSCIMRQCIAPVLPHTAVCLVCGEAGKEDTVEEEEGKFNLMLMECSICNEIIHPGCLKIKESEGVVNDELPNCWECPKCNHAGKTGKQKRGPGFKYASNLPGSLLKEQKMNRDNKEGQEPAKRRSECEEAPRRRSDEHPKKVPADGILRRKSDDVHLRRKRKYEKPQELSGRKRASSLQTSPGSSSHLSPRPPLGSSLSPWWRSSLTYFQQQLKPGKEDKLFRKKRRSWKNAEDRLSLANKPLRRFKQEPEDDLPEAPPKTRESDQSRSSSPTAGPSTEGAEGPEEKKKVKMRRKRRLVNKELSKELSKELNHEIQKTESTLAHESQQPIKSEPESENDEPKRPLSHCERPHRFSKGLNGTPRELRHSLGPGLRSPPRVMSRPPPSASPPKCIQMERHVIRPPPISPPPDSLPLDDGAAHVMHREVWMAVFSYLSHRDLCVCMRVCRTWNRWCCDKRLWTRIDLNRCKSITPLMLSGIIRRQPVSLDLSWTNISKKQLSWLINRLPGLRDLVLSGCSWIAVSALCSSSCPLLRTLDVQWVEGLKDAQMRDLLSPPTDNRPGQMDNRSKLRNIVELRLAGLDITDVSLRLIIRHMPLLSKLQLSYCNHINDQSINLLTAVGTTTRDSLTEVNLSDCNKVTDLCLSFFKRCGNICHIDLRYCKQVTKEGCEQFIAEMSVSVQFGQVEEKLLQKLS
On to B1, for which the binding result (in assay [1]; with Ring1BI53A) was “binds” in each case.

B2: L3mbtl3 (protein, UniProt Q8BLB7 1-883)
chain: MTESASSTSGQEFDVFSVMDWKDGVGTLPGSDLKFRVNEFGALEVITDESEMESVKKATATTTWMVPTAQDAPTSPPSSRPVFPPAYWTSPPGCPTVFSEKTGVPFRLKEQSKADGLQFCENCCQYGNGDECLSGGKYCSQNCARHAKDKDQKDERDGGEDNDEEDPKCSRKKKPKLSLKADSKDDGEERDDEMENKQDGRILRGSQRARRKRRGDSAVLKQGLPPKGKKTWCWASYLEEEKAVAVPTKLFKEHQSFPYNKNGFKVGMKLEGVDPDHQAMYCVLTVAEVCGYRIKLHFDGYSDCYDFWVNADALDIHPVGWCEKTGHKLRPPKGYKEEEFNWQSYLKTCKAQAAPKSLFENQNITVIPSGFRVGMKLEAADKKSPSVICVATVTDMVDNRFLVHFDNWDESYDYWCESNSPHIHPVGWCKEHRRTLITPPGYSHVKHFSWDKYLEETNSLPAPARAFKVKPPHGFQKKMKLEAVDKRNPLFIRVATVADTDDHRIKVHFDGWSSCYDYWIDADSPDIHPVGWCSKTGHPLQAPLSPAELMEPSETGGCPTLGCRGVGHFKKSRYLGTQSGANCPYSEINLSKERIFPDRLSGDTSPPTTPSFPRSKRMDTRESSSSPETREKHANNFKEDSEKKKENEVKTSAEAKVVREEPTPSVQQSQPPQQVQQVQHAQPPQQAQKAPQAQQAQQAQQAQQAPQAPQTPQPQQAPQVQQAQQAPQAQQAQQPQQAQQPQQAPPVQQPQQVQQAQPTQQQAQTQQQAQRRSAVFLSFKPPIPCLPLRWEQQSKLLPTVAGIPASRVSKWSTDEVSEFIQSLPGCEEHGKVFKDEQIDGEAFLLMTQTDIVKIMSIKLGPALKIFNSILMFKAAEKNSHNEL
With B2, the binding result (in assay [1]; with Ring1BI53A) was “binds” throughout.

B3: Phc1 (protein, UniProt Q64028 1-1010)
chain: METESEQNSSSTNGSSSSGASSRPQIAQMSLYERQAVQALQALQRQPNAAQYFHQFMLQQQLSNAQLHSLAAVQQATIAASRQASSPNSSTAQQQTATTQASMNLATTSAAQLISRSQSVSSPSATTLTQSVLLGNTTSPPLNQSQAQMYLRPQLGNLLQVNRTLGRNVPLASQLILMPNGAVAAVQQEVPPAQSPGVHADADQVQNLAVRNQQASAQGPQMPGSTQKAIPPGASPVSGLSQTSSQALAVAQASSGASGQSLNLSQAGGGSGNSLPGSMGPGGGGQAPGGLGQLPSSGLTGGSCPRKGTGVVQPLPAAQTVTVSQGSQTEAESAAAKKAEADGSGQQSVGMNLTRTATPAPSQTLISSATYTQIQPHSLIQQQQQIHLQQKQVVIQQQIAIHHQQQFQHRQSQLLHTATHLQLAQQQQQQQQQQQQQQQQQQQQQQGTTLTAPQPPQVPPTQQVPPSQSQQQAQTLVVQPMLQSSPLTLPPEPTSKPPIPIQSKPPVAPIKPPQLGAAKMSATQQPPPHIPVQVVGTRQPGSAQAQALGLAQLAAAVPTPRGITGAVQPGQAHLASSPPSSQAAPGALQECPPALAAGMTLAPVQGTAHVVKGGPTASSPVVAQVPAAFYMQSVHLPGKAQTLAVKRKAESEEERDDLSALASVLPTKASPAAESPKVIEEKNSLGEKAEPVASLNANPPNSDLVALAPTPSAPPPTLALVSRQMGDSKPPQAIVKPQILTHIIEGFVIQEGAEPFPVGCSQFLKETKKPLQAGLPTGLNESQPSGPLGGDSPSVELEKKANLLKCEYCGKYAPAEQFRGSKRFCSMTCAKRYNVSCSHQFRLKRKKMKEFQEASYARVRRRGPRRSSSDIARAKIQGKRHRGQEDSSRGSDNSSYDEALSPTSPGPLSVRAGHGERDLGNTITTPSTPELQGINPVFLSSNPSQWSVEEVYEFIASLQGCQEIAEEFRSQEIDGQALLLLKEEHLMSAMNIKLGPALKICAKINVLKET
As to B3, the binding entry (in assay [1]; in the assay with Ring1BI53A) was “binds” throughout.

B4: Cbx4 (protein, UniProt O55187 1-551)
chain: MELPAVGEHVFAVESIEKKRIRKGRVEYLVKWRGWSPKYNTWEPEENILDPRLLIAFQNRERQEQLMGYRKRGPKPKPLVVQVPTFARRSNVLTGLQDSSADNRAKLELGTQGKGQGHQYELNSKKHHQYQPHSKERSGKPPPPGKSGKYYYQLNSKKHHPYQPDPKMYDLQYQGGHKEAPSPTCPDLGTKSHPPDKWAHGAAAKGYLGAVKPLGGGAGAPGKGSEKGPPNGMTPAPKEAVTGNGIGGKMKIVKNKNKNGRIVIVMSKYMENGMQAVKIKSGEAAEGEARSPSHKKRAAEERHPQGDRTFKKAAGASEEKKAEVPCKRREEEALVSGDAQPQDLGSRKLSPTKEAFGEQPLQLTTKPDLLAWDPARSSHPPAHHHHHHHHHHHHHTVGLNLSHARKRCLSETHGEREPCKKRLTARSISTPTCLGGSPVSEHPANVSPTAASLPQPEVILLDSDLDEPIDLRCVKMRSDAGEPPSTLQVKPEAPAVAAVVAPAPASEKPPAEAQEEPVEPLSEFKPFFGNIIITDVTANCLTVTFKEYVTV
As to B4, the binding result (in assay [1]; with Ring1BI53A) was “binds” in each case.

B5: Phc2 (protein, UniProt Q9QWH1 1-850)
chain: MENELPVPHTSNRASVTTNTSGTNSSSGCISSSGGGGGSGGRPTAPQISVYSGIPDRQTVQVIQQALHRQPSTAAQYLQQMYAAQQQHLMLQTAALQQQHLSSAQLQSLAAVQQASLVANRQGSTPGSSVSSQAPAQSSSLNLAASPAAAQLINRAQSVNSAAASGLAQQAVLLGNTSSPALTASQAQMYLRAQMLIFTPTATVATVQPELCTGSPARPPTPAQVQNLTLRTQQTPAAAASGPPPTQPVLPSLALKPTPSSSQPLPAPPQGRTMAQGSPAGAKPSGTDNAPETLKAGDGNCNMEGRPGPGRAVPAVATHPLIAPAYAHLQSHQLLPQPPAKHPQPQFVAQQQPQPPRPAPQVQSQPQLASVSPSLALQSSPEDHALPLGSVTQALPLQCSTTHVHKPGNSQQCHLPTLDTGSQNGHPEGGSHPPQRRFQHTSAVILQVQPASPVTPQQCAPDDWKEVVPAEKSVPVARPGPSPHQQAIIPAIPGGLPGPKSPNIQQCPAHETGQGIVHALTDLSSPGMTSGNGNSASSIAGTAPQNGENKPPQAIVKPQILTHVIEGFVIQEGAEPFPVGRSSLLVGNLKKKYAQGFLPEKPPQQDHTTTTDSEMEEPYLQESKEEGTPLKLKCELCGRVDFAYKFKRSKRFCSMACAKRYNVGCTKRVGLFHSDRSKLQKAGTTTHNRRRASKASLPTLTKDTKKQPSGTVPLSVTAALQLAHSQEDSSRCSDNSSYEEPLSPISASSSTSRRRQGQRDLDLPDMHMRDLVGVGHHFLPSEPTKWNVEDVYEFIRSLPGCQEIAEEFRAQEIDGQALLLLKEDHLMSAMNIKLGPALKIYARISMLKDS
For B5, the binding entry (in assay [1]; with Ring1BI53A) was “binds” each time.

B6: Ogt (enzyme, UniProt Q8CGY8 1-1046)
chain: MASSVGNVADSTEPTKRMLSFQGLAELAHREYQAGDFEAAERHCMQLWRQEPDNTGVLLLLSSIHFQCRRLDRSAHFSTLAIKQNPLLAEAYSNLGNVYKERGQLQEAIEHYRHALRLKPDFIDGYINLAAALVAAGDMEGAVQAYVSALQYNPDLYCVRSDLGNLLKALGRLEEAKACYLKAIETQPNFAVAWSNLGCVFNAQGEIWLAIHHFEKAVTLDPNFLDAYINLGNVLKEARIFDRAVAAYLRALSLSPNHAVVHGNLACVYYEQGLIDLAIDTYRRAIELQPHFPDAYCNLANALKEKGSVAEAEDCYNTALRLCPTHADSLNNLANIKREQGNIEEAVRLYRKALEVFPEFAAAHSNLASVLQQQGKLQEALMHYKEAIRISPTFADAYSNMGNTLKEMQDVQGALQCYTRAIQINPAFADAHSNLASIHKDSGNIPEAIASYRTALKLKPDFPDAYCNLAHCLQIVCDWTDYDERMKKLVSIVAEQLEKNRLPSVHPHHSMLYPLSHGFRKAIAERHGNLCLDKINVLHKPPYEHPKDLKLSDGRLRVGYVSSDFGNHPTSHLMQSIPGMHNPDKFEVFCYALSPDDGTNFRVKVMAEANHFIDLSQIPCNGKAADRIHQDGIHILVNMNGYTKGARNELFALRPAPIQAMWLGYPGTSGALFMDYIITDQETSPAEVAEQYSEKLAYMPHTFFIGDHANMFPHLKKKAVIDFKSNGHIYDNRIVLNGIDLKAFLDSLPDVKIVKMKCPDGGDNPDSSNTALNMPVIPMNTIAEAVIEMINRGQIQITINGFSISNGLATTQINNKAATGEEVPRTIIVTTRSQYGLPEDAIVYCNFNQLYKIDPSTLQMWANILKRVPNSVLWLLRFPAVGEPNIQQYAQNMGLPQNRIIFSPVAPKEEHVRRGQLADVCLDTPLCNGHTTGMDVLWAGTPMVTMPGETLASRVAASQLTCLGCLELIAKSRQEYEDIAVKLGTDLEYLKKIRGKVWKQRISSPLFNTKQYTMELERLYLQMWEHYAAGNKPDHMIKPVEVTESA
Take B6: the binding entry (in assay [1]; in the assay with Ring1BI53A) was “binds” each time.
